PubChem BioAssay AID1259405 | NCATS, 2018
The whole screen tested about 50,000 reagents; below is an unselected part. About 4,000 of them (8%) count as active. 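Mouse siRNA library applied to hamster cells; one well for each siRNA.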 The numbers tell different reagents against one gene apart.

Aim: 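Silenced genes that increase secreted GFP made by CHO cells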 (primary screen)
Cell system: Chinese hamster CHO-K1 ovary cells with stable secreted eGFP expression
Reagents: single siRNA against mouse genes, 0.8 pmol siRNA per well (2 µl of 400 nM stock)
Time to read-out: 3 days
Detection: 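Percent of the per-plate non-targeting control median for intracellular GFP per well by laser scanning cytometry and for cell viability by ATP luminescence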
Reading the numbers: GFP, % of control: higher = more GFP per well, higher productivity; viability (ATP), % of control: higher = more viable cells (more ATP)
Active means: 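Called active when intracellular GFP, relative to negative control, is at or above 120%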

no.	Target gene	siRNA no.	GFP, % of control	viability (ATP), % of control	activity call
1	Gab1 (GeneID 14388)	1	48.7	55.3	inactive
2	Gab1 (GeneID 14388)	2	85.2	105	inactive
3	Gab1 (GeneID 14388)	3	52.5	73.8	inactive
4	Cmya5 (GeneID 76469)	1	51.6	105	inactive
5	Cmya5 (GeneID 76469)	2	34.6	52.9	inactive
6	Cmya5 (GeneID 76469)	3	64	118	inactive
7	Cep15 (GeneID 218734)	1	88.8	93.7	inactive
8	Cep15 (GeneID 218734)	2	82.6	52.9	inactive
9	Cep15 (GeneID 218734)	3	138	146	active
10	Smarca5 (GeneID 93762)	1	75.6	69.3	inactive
11	Smarca5 (GeneID 93762)	2	86	88.3	inactive
12	Smarca5 (GeneID 93762)	3	87.1	55.2	inactive
13	Atp6v1h (GeneID 108664)	1	64.9	42.9	inactive
14	Atp6v1h (GeneID 108664)	2	87.1	79.5	inactive
15	Atp6v1h (GeneID 108664)	3	44	38.1	inactive
16	Or4c31 (GeneID 258522)	1	55.5	52.3	inactive
17	Or4c31 (GeneID 258522)	2	73	71	inactive
18	Or4c31 (GeneID 258522)	3	74.4	52.2	inactive
19	Abhd8 (GeneID 64296)	1	90.9	75.7	inactive
20	Abhd8 (GeneID 64296)	2	134	132	active
21	Abhd8 (GeneID 64296)	3	86.6	95.7	inactive
22	Chrna5 (GeneID 110835)	1	23.7	51.3	inactive
23	Chrna5 (GeneID 110835)	2	168	99	active
24	Chrna5 (GeneID 110835)	3	23.3	24.2	inactive
25	Taar1 (GeneID 111174)	1	39.1	41.9	inactive
26	Taar1 (GeneID 111174)	2	74.5	80.9	inactive
27	Taar1 (GeneID 111174)	3	94.6	103	inactive
28	Rpl8 (GeneID 26961)	1	80.2	121	inactive
29	Rpl8 (GeneID 26961)	2	135	65.8	active
30	Rpl8 (GeneID 26961)	3	97.6	88.2	inactive
31	Clock (GeneID 12753)	1	75.1	74.1	inactive
32	Clock (GeneID 12753)	2	48.2	61.4	inactive
33	Clock (GeneID 12753)	3	100	108	inactive
34	Mmel1 (GeneID 27390)	1	67.1	98.6	inactive
35	Mmel1 (GeneID 27390)	2	60.3	49.9	inactive
36	Mmel1 (GeneID 27390)	3	22.3	42	inactive
37	Kdm2b (GeneID 30841)	1	82.7	66.7	inactive
38	Kdm2b (GeneID 30841)	2	94.5	71.8	inactive
39	Kdm2b (GeneID 30841)	3	91	77.2	inactive
40	Alg8 (GeneID 381903)	1	2.46	58.2	inactive
41	Alg8 (GeneID 381903)	2	68.2	62.8	inactive
42	Alg8 (GeneID 381903)	3	71.6	82.5	inactive
43	Pde4a (GeneID 18577)	1	83.4	48.6	inactive
44	Pde4a (GeneID 18577)	2	82.6	75.6	inactive
45	Pde4a (GeneID 18577)	3	109	105	inactive

Entries listed so far marked active (4):
Target gene	siRNA no.	GFP, % of control	viability (ATP), % of control	activity call
Cep15 (GeneID 218734)	3	138	146	active
Abhd8 (GeneID 64296)	2	134	132	active
Chrna5 (GeneID 110835)	2	168	99	active
Rpl8 (GeneID 26961)	2	135	65.8	active

Further reagents:
no.	Target gene	siRNA no.	GFP, % of control	viability (ATP), % of control	activity call
46	H2aj (GeneID 232440)	1	101	87.1	inactive
47	H2aj (GeneID 232440)	2	111	81.2	inactive
48	H2aj (GeneID 232440)	3	75.6	68.4	inactive
49	Rps6ka5 (GeneID 73086)	1	135	93.4	active
50	Rps6ka5 (GeneID 73086)	2	118	110	inactive
51	Rps6ka5 (GeneID 73086)	3	113	84.6	inactive
52	Rnf138rt1 (GeneID 74264)	1	107	72	inactive
53	Rnf138rt1 (GeneID 74264)	2	52.7	71.3	inactive
54	Rnf138rt1 (GeneID 74264)	3	102	102	inactive
55	Cdc42ep4 (GeneID 56699)	1	66.7	86.3	inactive
56	Cdc42ep4 (GeneID 56699)	2	74.3	35.5	inactive
57	Cdc42ep4 (GeneID 56699)	3	96.4	99.9	inactive
58	Cntn2 (GeneID 21367)	1	141	91.7	active
59	Cntn2 (GeneID 21367)	2	87.7	73.4	inactive
60	Mrpl28 (GeneID 68611)	1	89.4	74.6	inactive
61	Mrpl28 (GeneID 68611)	2	95.7	72.5	inactive
62	Mrpl28 (GeneID 68611)	3	87.8	66	inactive
63	Liat1 (GeneID 74230)	1	85.6	87	inactive
64	Liat1 (GeneID 74230)	2	57.2	40.7	inactive
65	Liat1 (GeneID 74230)	3	96.6	74.2	inactive
66	Usp2 (GeneID 53376)	1	68.4	74.7	inactive
67	Usp2 (GeneID 53376)	2	112	90.7	inactive
68	Usp2 (GeneID 53376)	3	101	69.9	inactive
69	Eif4ebp2 (GeneID 13688)	1	39.7	47.6	inactive
70	Eif4ebp2 (GeneID 13688)	2	101	82.7	inactive
71	Eif4ebp2 (GeneID 13688)	3	118	107	inactive
72	Or4c29 (GeneID 258453)	1	54.6	90.8	inactive
73	Or4c29 (GeneID 258453)	2	107	70.8	inactive
74	Or4c29 (GeneID 258453)	3	58.9	90.5	inactive
75	Pts (GeneID 19286)	1	52.4	68.9	inactive
76	Pts (GeneID 19286)	2	87.8	155	inactive
77	Pts (GeneID 19286)	3	75.8	85.9	inactive
78	Hspb2 (GeneID 69253)	1	28.8	35.7	inactive
79	Hspb2 (GeneID 69253)	2	119	101	inactive
80	Hspb2 (GeneID 69253)	3	109	108	inactive
81	Or11g25 (GeneID 258233)	1	85.6	82.4	inactive
82	Or11g25 (GeneID 258233)	2	94.1	120	inactive
83	Or11g25 (GeneID 258233)	3	34.6	49.8	inactive
84	Or8b48 (GeneID 258806)	1	89.2	60.2	inactive
85	Or8b48 (GeneID 258806)	2	106	67	inactive
86	Or8b48 (GeneID 258806)	3	75.1	76.2	inactive
